# Laboratory results published in the M2OR odorant receptor database.
# Chains of the proteins cited; added tags and fusions are not shown. Chains listed by the source or under a name are the forms on record and can include a tag or linker.
# OR6F1, as listed by the source: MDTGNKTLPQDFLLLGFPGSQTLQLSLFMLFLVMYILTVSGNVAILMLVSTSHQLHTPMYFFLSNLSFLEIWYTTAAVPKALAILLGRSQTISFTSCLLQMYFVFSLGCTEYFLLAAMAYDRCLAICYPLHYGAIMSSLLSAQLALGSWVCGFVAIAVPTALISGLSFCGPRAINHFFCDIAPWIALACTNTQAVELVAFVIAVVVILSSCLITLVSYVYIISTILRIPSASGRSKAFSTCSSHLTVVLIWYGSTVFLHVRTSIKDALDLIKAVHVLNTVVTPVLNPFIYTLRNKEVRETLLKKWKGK
# Only a part is listed here, and it is no random draw. Calls are pooled over several reports, among them a noisy single-well screen. The list shows a part of the results.
# Key:
# Conditions in all cases: stereoisomer not certain
# OR6J1 = tested on: T1, OR6J1
# T1 sequence (whole entry): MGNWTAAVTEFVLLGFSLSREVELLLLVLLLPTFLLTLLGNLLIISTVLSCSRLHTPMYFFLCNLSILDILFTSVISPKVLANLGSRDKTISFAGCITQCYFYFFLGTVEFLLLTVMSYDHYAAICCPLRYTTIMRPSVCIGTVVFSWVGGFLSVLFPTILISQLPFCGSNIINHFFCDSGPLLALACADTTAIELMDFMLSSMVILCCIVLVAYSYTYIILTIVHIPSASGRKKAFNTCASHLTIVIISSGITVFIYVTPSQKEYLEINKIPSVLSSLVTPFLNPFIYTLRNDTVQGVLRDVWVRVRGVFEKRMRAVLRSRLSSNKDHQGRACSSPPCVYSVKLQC
# How it was run: (§1)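 Each receptor–molecule pair is labelled responsive or non-responsive (inactive) according to whether the original authors judged the measured signal statistically different from baseline. The data were taken from the main text and supplementary material of published papers and checked for typos and inconsistencies. Assay methods differed by source, with transient luciferase assays in mammalian cell lines being common.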
# OR6K2 (Homo sapiens) = target: T2, OR6K2 (Homo sapiens) (UniProt Q8NGY2)
# T2 sequence (whole entry): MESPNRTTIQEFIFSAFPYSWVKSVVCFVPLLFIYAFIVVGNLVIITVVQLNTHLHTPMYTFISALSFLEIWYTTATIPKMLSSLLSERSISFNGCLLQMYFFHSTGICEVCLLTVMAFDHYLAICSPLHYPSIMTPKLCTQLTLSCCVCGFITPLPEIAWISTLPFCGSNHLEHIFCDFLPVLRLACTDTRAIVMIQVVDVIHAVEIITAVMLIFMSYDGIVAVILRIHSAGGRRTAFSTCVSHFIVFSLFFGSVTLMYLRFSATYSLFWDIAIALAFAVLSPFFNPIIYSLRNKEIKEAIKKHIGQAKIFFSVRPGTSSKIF
# How it was run: as §1
# OR6K3 [1] = tested on: T3, OR6K3
# T3 sequence (whole entry): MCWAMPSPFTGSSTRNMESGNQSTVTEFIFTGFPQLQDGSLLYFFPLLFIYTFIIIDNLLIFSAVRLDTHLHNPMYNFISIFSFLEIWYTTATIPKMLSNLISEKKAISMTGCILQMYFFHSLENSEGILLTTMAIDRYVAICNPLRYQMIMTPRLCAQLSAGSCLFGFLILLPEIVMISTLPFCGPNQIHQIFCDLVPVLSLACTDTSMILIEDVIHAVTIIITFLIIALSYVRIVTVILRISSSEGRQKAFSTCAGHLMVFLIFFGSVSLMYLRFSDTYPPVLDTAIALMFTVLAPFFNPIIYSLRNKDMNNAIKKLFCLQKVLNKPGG
# How it was run: as §1
# OR6K3 [2] = tested on: T4, OR6K3; remark: listed apart in the source
# T4 sequence (whole entry): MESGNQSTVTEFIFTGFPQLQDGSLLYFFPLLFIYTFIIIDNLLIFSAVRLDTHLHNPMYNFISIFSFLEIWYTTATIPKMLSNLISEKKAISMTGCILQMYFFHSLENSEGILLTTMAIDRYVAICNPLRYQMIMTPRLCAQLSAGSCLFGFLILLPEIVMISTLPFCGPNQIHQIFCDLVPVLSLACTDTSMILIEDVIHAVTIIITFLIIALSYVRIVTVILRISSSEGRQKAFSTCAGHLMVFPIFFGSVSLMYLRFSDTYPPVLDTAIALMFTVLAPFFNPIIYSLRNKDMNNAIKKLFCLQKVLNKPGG
# How it was run: as §1
# OR6K6 [3] = tested on: T5, OR6K6
# T5 sequence (whole entry): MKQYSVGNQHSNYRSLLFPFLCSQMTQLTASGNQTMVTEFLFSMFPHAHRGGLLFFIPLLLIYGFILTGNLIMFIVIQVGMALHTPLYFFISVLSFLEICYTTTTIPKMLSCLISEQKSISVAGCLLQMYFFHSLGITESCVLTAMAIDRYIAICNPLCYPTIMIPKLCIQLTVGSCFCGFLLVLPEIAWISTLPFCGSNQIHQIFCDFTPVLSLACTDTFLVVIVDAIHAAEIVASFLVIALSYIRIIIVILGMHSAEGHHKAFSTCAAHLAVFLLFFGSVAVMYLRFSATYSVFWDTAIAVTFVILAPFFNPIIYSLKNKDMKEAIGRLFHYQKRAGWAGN
# How it was run: as §1
# OR6K6 [4] = tested on: T6, OR6K6; remark: listed apart in the source
# T6 sequence (whole entry): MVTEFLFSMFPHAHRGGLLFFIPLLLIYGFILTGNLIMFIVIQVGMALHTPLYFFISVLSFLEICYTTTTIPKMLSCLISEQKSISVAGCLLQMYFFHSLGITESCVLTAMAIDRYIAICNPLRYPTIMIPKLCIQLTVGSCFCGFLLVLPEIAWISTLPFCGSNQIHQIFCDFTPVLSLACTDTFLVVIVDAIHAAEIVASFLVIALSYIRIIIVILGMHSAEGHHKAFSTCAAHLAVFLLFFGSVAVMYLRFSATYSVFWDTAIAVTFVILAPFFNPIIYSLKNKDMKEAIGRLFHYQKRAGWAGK
# How it was run: as §1
# OR6M1 (Homo sapiens) = target: T7, OR6M1 (Homo sapiens) (UniProt Q8NGM8)
# T7 sequence (whole entry): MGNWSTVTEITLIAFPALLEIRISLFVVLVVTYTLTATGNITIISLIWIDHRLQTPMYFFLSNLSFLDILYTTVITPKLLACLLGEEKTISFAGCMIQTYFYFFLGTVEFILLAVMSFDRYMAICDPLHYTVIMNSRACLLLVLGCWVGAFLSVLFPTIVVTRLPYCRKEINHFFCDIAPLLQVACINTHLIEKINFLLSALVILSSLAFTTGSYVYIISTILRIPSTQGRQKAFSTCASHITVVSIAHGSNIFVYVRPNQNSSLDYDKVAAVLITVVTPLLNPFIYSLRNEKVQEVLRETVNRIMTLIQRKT
# How it was run: as §1
# OR6N1 = tested on: T8, OR6N1
# T8 sequence (whole entry): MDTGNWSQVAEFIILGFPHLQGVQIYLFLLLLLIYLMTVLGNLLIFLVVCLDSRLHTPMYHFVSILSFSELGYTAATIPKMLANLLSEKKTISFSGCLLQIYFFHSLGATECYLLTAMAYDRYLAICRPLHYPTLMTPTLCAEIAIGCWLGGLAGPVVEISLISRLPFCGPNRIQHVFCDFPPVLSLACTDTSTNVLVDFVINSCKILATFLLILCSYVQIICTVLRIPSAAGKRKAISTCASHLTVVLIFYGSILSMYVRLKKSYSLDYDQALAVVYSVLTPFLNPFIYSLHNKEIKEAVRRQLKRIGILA
# How it was run: as §1
# OR6N2 (Homo sapiens) = target: T9, OR6N2 (Homo sapiens) (UniProt Q8NGY6)
# T9 sequence (whole entry): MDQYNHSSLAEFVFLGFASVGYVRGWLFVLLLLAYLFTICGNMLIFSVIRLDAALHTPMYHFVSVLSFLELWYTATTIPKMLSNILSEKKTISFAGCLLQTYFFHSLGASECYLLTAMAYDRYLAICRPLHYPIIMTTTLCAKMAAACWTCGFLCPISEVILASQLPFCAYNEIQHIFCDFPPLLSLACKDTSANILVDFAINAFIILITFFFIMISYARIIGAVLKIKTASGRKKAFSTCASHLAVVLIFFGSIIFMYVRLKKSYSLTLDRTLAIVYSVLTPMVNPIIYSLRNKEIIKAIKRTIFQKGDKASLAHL
# How it was run: as §1
# OR6P1 (Homo sapiens) = target: T10, OR6P1 (Homo sapiens) (UniProt Q8NGX9)
# T10 sequence (whole entry): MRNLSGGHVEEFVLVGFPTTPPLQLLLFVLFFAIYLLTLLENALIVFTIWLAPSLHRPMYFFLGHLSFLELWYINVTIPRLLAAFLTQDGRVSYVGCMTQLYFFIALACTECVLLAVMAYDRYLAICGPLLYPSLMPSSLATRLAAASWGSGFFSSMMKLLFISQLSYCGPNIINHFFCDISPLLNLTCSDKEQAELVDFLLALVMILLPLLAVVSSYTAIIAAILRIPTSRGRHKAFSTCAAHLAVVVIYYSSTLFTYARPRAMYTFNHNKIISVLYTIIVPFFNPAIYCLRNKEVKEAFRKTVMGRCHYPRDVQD
# How it was run: as §1
# OR6Q1 (Homo sapiens) = target: T11, OR6Q1 (Homo sapiens) (UniProt Q8NGQ2)
# T11 sequence (whole entry): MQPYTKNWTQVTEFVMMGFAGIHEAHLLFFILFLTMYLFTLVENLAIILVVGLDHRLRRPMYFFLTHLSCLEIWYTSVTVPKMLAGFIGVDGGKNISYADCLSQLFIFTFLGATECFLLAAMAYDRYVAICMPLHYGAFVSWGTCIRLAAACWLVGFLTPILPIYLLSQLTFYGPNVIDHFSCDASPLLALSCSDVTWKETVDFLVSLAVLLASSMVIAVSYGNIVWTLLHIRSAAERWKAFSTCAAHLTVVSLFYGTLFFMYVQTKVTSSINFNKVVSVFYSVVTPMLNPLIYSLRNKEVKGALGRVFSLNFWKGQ
# How it was run: as §1
# OR6S1 = tested on: T12, OR6S1
# T12 sequence (whole entry): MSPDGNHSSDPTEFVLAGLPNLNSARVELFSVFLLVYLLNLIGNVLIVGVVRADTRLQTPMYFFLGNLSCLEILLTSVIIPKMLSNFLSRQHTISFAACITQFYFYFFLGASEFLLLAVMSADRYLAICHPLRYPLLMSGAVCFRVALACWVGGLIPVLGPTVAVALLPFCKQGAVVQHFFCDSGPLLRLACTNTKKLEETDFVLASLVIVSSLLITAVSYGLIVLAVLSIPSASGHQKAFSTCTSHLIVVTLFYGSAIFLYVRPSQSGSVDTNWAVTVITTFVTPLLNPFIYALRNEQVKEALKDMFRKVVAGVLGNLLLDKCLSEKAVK
# How it was run: as §1
# OR6T1 = tested on: T13, OR6T1
# T13 sequence (whole entry): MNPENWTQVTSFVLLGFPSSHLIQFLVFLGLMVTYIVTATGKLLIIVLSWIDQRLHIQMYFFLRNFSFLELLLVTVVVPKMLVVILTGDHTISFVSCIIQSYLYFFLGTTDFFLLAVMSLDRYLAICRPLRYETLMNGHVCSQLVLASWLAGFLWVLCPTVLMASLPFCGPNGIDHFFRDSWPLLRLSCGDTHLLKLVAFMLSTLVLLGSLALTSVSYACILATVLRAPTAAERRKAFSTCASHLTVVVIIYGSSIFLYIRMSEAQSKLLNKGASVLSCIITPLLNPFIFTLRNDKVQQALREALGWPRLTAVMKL
# How it was run: as §1
# OR6K3 (Homo sapiens) = OR6K3 (Homo sapiens) (UniProt Q8NGY3)
# How it was run: as §1
# OR6K6 (Homo sapiens) = OR6K6 (Homo sapiens) (UniProt Q8NGW6)
# How it was run: as §1
# OR6N1 (Homo sapiens) = OR6N1 (Homo sapiens) (UniProt Q8NGY5)
# How it was run: as §1
# OR6S1 (Homo sapiens) = OR6S1 (Homo sapiens) (UniProt Q8NH40)
# How it was run: as §1
# OR6T1 (Homo sapiens) = OR6T1 (Homo sapiens) (UniProt Q8NGN1)
# How it was run: as §1
# OR6F1 [5] = tested on: OR6F1
# How it was run: as §1
# OR6F1 [6] = tested on: OR6F1; remark: listed apart in the source
# How it was run: as §1
# 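Further: active if original authors judged signal statistically different from baseline.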
Structure (SMILES),odorant receptor agonist call (OR6J1),odorant receptor agonist call (OR6K2 (Homo sapiens)),odorant receptor agonist call (OR6K3 [1]),odorant receptor agonist call (OR6K3 [2]),odorant receptor agonist call (OR6K6 [3]),odorant receptor agonist call (OR6K6 [4]),odorant receptor agonist call (OR6M1 (Homo sapiens)),odorant receptor agonist call (OR6N1),odorant receptor agonist call (OR6N2 (Homo sapiens)),odorant receptor agonist call (OR6P1 (Homo sapiens)),odorant receptor agonist call (OR6Q1 (Homo sapiens)),odorant receptor agonist call (OR6S1),odorant receptor agonist call (OR6T1),odorant receptor agonist call (OR6K3 (Homo sapiens)),odorant receptor agonist call (OR6K6 (Homo sapiens)),odorant receptor agonist call (OR6N1 (Homo sapiens)),odorant receptor agonist call (OR6S1 (Homo sapiens)),odorant receptor agonist call (OR6T1 (Homo sapiens)),odorant receptor agonist call (OR6F1 [5]),odorant receptor agonist call (OR6F1 [6])
C=C(C)C1CCC2=CC(=O)CC(C)C2(C)C1 (stereo not drawn),active,,,,,,,,,,,,,,,,,,,
CC(C)(C)c1ccc(CCC=O)cc1,inactive,inactive,inactive,inactive,inactive,inactive,inactive,inactive,inactive,inactive,inactive,inactive,inactive,,,,,,,
CCCCCC(=O)O,inactive,inactive,inactive,inactive,inactive,inactive,inactive,inactive,inactive,inactive,inactive,inactive,inactive,,,,,,,
CC(C)C=O,inactive,inactive,inactive,inactive,inactive,inactive,inactive,inactive,inactive,inactive,inactive,inactive,inactive,,,,,,,
CCCCCCCCCC=O,inactive,inactive,inactive,inactive,inactive,inactive,inactive,inactive,inactive,inactive,inactive,inactive,inactive,,,,,,,
CC(=O)OC(C)(C)C1CC=C(C)CC1 (stereo not drawn),active,inactive,inactive,inactive,inactive,inactive,inactive,inactive,inactive,inactive,inactive,inactive,inactive,,,,,,,
CC12C=CCC1C1CCC3CC(=O)CCC3(C)C1CC2 (stereo not drawn),inactive,inactive,inactive,inactive,inactive,inactive,,inactive,inactive,inactive,inactive,inactive,active,inactive,inactive,inactive,inactive,inactive,,
CC1CCC(C(C)C)C(O)C1 (stereo not drawn),inactive,inactive,inactive,active,inactive,inactive,inactive,inactive,inactive,inactive,inactive,inactive,inactive,,,,,,,
COc1cc(C=O)ccc1O,inactive,inactive,inactive,inactive,inactive,inactive,inactive,inactive,inactive,inactive,inactive,inactive,inactive,,,,,,,
CC(=O)OCC=C(C)CCC=C(C)C,active,inactive,inactive,active,inactive,inactive,inactive,inactive,inactive,inactive,inactive,inactive,inactive,,,,,,,
CCCCCCCOC(C)=O,inactive,inactive,inactive,inactive,inactive,inactive,inactive,inactive,inactive,inactive,inactive,inactive,inactive,,,,,,,
C=CCc1ccc(OC)c(OC)c1,inactive,inactive,inactive,inactive,inactive,inactive,inactive,inactive,inactive,inactive,inactive,inactive,inactive,,,,,,inactive,active
CCCCCCCCCCC=O,inactive,inactive,inactive,inactive,inactive,inactive,inactive,inactive,inactive,inactive,inactive,inactive,inactive,,,,,,,
